{
  "source": "patent US4316891A",
  "about": "(The Salk Institute for Biological Studies, priority 1980, dated 1982)",
  "experiment": "Boc solid-phase peptide synthesis; chloromethylated resin or hydroxymethyl resin",
  "details": "whole synthesis",
  "note": "HELM strings list residues between dots; [ac] is acetyl, [am] amide, other brackets name non-standard units.",
  "data": [
    {"substance": "PEPTIDE1{S.A.N.S.N.P.A.M.A.P.R.E.R.K.A.G.C.K.N.F.F.W.K.T.F.T.S.C}$PEPTIDE1,PEPTIDE1,17:R3-28:R3$$$V2.0", "values": [
      {"measurement": "final purity (method not given)", "value": "greater than 97%"}
    ]}
  ]
}
